Source: paper PMC12040169 (PLOS Biology, 2025)
This is one part of the list.

Each compound was assayed on T1, CTL2-GFP (C. trachomatis L2/434/Bu, GFP-expressing). Details: bulk GFP, single well; 28.5 h, 10 µM; inhibitor.
T1 construct: L2/434/Bu, GFP-expressing
Parameters: species or system HeLa; Intracellular C. trachomatis growth in HeLa cells, bulk GFP fluorescence relative to DMSO

Row | SMILES | % of control remaining
1 | Cc1ocnc1C(=O)NCC1CCN(c2ccccc2F)C1 (stereo not drawn) [CBK304671] | 92.6646%
2 | CCN1CCN(c2c(Cl)cccc2NC(=O)c2ccc(-c3cccc([N+](=O)[O-])c3)o2)CC1 [CBK268596] | 135.705%
3 | CSc1nc(NC(=O)C(C)c2ccccc2)cc(N2CCNCC2)n1 (stereo not drawn) [CBK026742T] | 100%
4 | O=c1[nH]c(=O)c2cc(S(=O)(=O)N3CCCC(CN4CCCC4)C3)ccc2[nH]1 (stereo not drawn) [CBK286392] | 143.238%
5 | CCS(=O)(=O)N1CCC(NC(=O)NC(C)c2ccccc2Cl)CC1 (stereo not drawn) [CBK242304] | 122.656%
6 | C=CCn1c(-c2sc(NC(=O)c3ccc(C)c(C)c3)nc2C)n[nH]c1=S [CBK295294] | 144.604%
7 | Cc1cc(C)c(S(=O)(=O)Nc2nnc(C(F)(F)F)s2)c(C)c1 [CBK045507] | 135.71%
8 | c1ccc(Oc2ccccc2-c2cc(N3CCN(c4ccccn4)CC3)ncn2)cc1 [CBK091083] | 167.796%
9 | COCC(=O)N1CCC(c2cc3nc(C(F)(F)F)ccc3[nH]2)CC1 [CBK282185] | 109.493%
10 | Cn1nccc1C(O)c1cc2n(n1)CCCN(C(=O)Cc1cccs1)C2 (stereo not drawn) [CBK306930] | 122.837%
11 | COc1cc(C(=O)O)ccc1OCC(=O)Nc1ccc(F)cc1 [CBK287101] | 130.352%
12 | Cc1ccc(CN(CCCn2ccnc2)Cc2c[nH]cn2)s1 [CBK283136] | 106.18%
13 | CCC1=NN2C(=N)/C(=C/c3ccc(OC)cc3)C(=O)N=C2S1 [CBK101905] | 127.46%
14 | CSCCCNC(=O)c1cnn2c(C)c(Cc3ccccc3C)c(C)nc12 [CBK162028] | 117.126%
15 | O=C(OCc1ccccc1)N1CCC2(CC1)CN(CCO)c1ccccc12 [CBK022627] | 144.242%
16 | Cc1ccccc1-n1c(SC(C)C)nc2sc3c(c2c1=O)CC(C)(C)OC3 [CBK091874] | 143.571%
17 | O=C(Nc1nnc(-c2ccco2)o1)c1ccccc1 [CBK287420] | 138.974%
18 | COC(=O)C1CCCN1CC(=O)NCc1ccc(OCC(N)=O)cc1 (stereo not drawn) [CBK304970] | 98.6366%
19 | COc1cc(CNc2nnn[nH]2)cc(Br)c1OCc1ccc(Cl)cc1 [CBK300496] | 161.974%
20 | Cc1cccc(-c2ncc(NC(=O)COc3ccc([N+](=O)[O-])cc3)nc2-c2cccnc2)c1 [CBK037096] | 142.811%
21 | Cc1nc2c(c(=O)[nH]1)CCN(Cc1ccc(-c3ccccc3)cc1)C2 [CBK283970] | 122.102%

Quoted at random: 2 records from the list.
Row | SMILES | % of control remaining
4 | O=c1[nH]c(=O)c2cc(S(=O)(=O)N3CCCC(CN4CCCC4)C3)ccc2[nH]1 (stereo not drawn) [CBK286392] | 143.238%
13 | CCC1=NN2C(=N)/C(=C/c3ccc(OC)cc3)C(=O)N=C2S1 [CBK101905] | 127.46%
